The record followed here is US8933142B2, “Low-extractable thioxanthones” (Lamberti Spa, priority 2010, dated 2015).

Some results are limits rather than exact numbers.

A short description of this series: Extractability in offset printing (HPLC of contact solution). As to conditions: 10 days at 40° C., mean of triplicate; for Amount extracted, EtOH 10%: ethanol/water 10/90, 200 mL; for Amount extracted, EtOH 95%: ethanol/water 95/5, 200 mL.

With `C=CCOC(=O)c1ccc2c(=O)c3cc(C)ccc3sc2c1` [Example 4, allyl 7-methyl-9-oxo-9H-thioxanthene-3-carboxylate], the “Amount extracted, EtOH 10%” value is given as under 50 ppb and the “Amount extracted, EtOH 95%” value was found to be 76 ppb.
With `Cc1ccc2sc3cc(C(=O)N(CC(C)C)CC(C)C)ccc3c(=O)c2c1` [Example 5, N,N-disobutyl 7-methyl-9-oxo-9H-thioxanthene-3-carboxamide], the “Amount extracted, EtOH 10%” value is on record as under 50 ppb and the “Amount extracted, EtOH 95%” value is on record as under 50 ppb.
Regarding `CC(C)c1ccc2sc3ccccc3c(=O)c2c1` [ITX, isopropyl thioxanthone, reference compound], the “Amount extracted, EtOH 10%” value is 75 ppb and the “Amount extracted, EtOH 95%” value was determined as 749 ppb.
The corresponding values for `CCCCCCCCCCCCOC(=O)c1ccc2c(=O)c3cc(C)ccc3sc2c1` [Example 1, dodecyl-7-methyl-9-oxo-9H-thioxanthene-3-carboxylate] are under 50 ppb and under 50 ppb.
